For at least one entry, the source does not settle the construct or the ends of the probe. At least one result comes from cells or an extract, where the contact may be indirect. Negatives hold for the conditions tested. The comparison behind a weaker result is the experiment's own reference, which may not be listed here. At least one verdict was read from the data and is not stated in words by the source.
Biological target: ZBTB3 (SC nuclear extract, anti-ZBTB3 antibody) (Homo sapiens) (UniProt Q9H5J0)
Test: EMSA
Conditions: EMSA: 20 nM biotin probe, 100 mM Tris pH 7.5, 55 mM KCl, 2.5 mM MgCl2, 1 mM DTT, 500 ng poly(dI-dC), 5% glycerol, 0.05% NP-40, 20 ul, room temperature 20 min, protein in an extract, label: 5' biotin on strand 1

Protein sequences, listed by entry. Tags and fused reporters are not part of them. Lines headed by an entry give the natural chain unless they say otherwise; changes in a name come on top.
UniProt Q9H5J0: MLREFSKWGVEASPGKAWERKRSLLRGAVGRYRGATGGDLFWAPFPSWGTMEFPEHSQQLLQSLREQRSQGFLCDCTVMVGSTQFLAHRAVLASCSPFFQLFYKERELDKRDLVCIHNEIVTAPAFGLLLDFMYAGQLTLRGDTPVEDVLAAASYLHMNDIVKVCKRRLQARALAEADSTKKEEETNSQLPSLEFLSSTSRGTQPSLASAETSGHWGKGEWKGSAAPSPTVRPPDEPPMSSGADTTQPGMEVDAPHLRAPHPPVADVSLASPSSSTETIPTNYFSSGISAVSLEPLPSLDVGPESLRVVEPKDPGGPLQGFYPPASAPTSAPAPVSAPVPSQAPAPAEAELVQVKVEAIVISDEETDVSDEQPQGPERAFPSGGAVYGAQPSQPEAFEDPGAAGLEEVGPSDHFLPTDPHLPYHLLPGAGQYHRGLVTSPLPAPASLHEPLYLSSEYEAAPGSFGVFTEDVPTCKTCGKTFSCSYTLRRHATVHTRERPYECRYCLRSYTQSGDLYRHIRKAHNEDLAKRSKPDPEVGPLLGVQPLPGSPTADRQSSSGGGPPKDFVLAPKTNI

“CCAAAAAGCTCTGAGCCGGTGTTAGTAAGAAATGG (double strand) [rs4728142-G]”: binds more weakly (anti-ZBTB3 antibody, ZBTB3 prefers allele A).

“CCGGGAGCCCCGCTGGAGGCTGGCTTGGA (double strand) [IRF5-promoter]”: binds (anti-ZBTB3 antibody).

“CCAAAAAGCTCTGAGCCAGTGTTAGTAAGAAATGG (double strand) [rs4728142-A]”: binds (anti-ZBTB3 antibody, preferred allele).

“CCGGGAGCCCCGGGAGGCTGGCTTGGA (double strand) [IRF5-p-deltaCT]”: no binding (binding lost on CT deletion).

From PMC9984425
